Assay results published in article doi:10.1101/2025.06.19.660543.
No constants are given. Whether binding was seen depends on the method and setting. Binding seen in cells or lysates may run through a third protein. Some results given as binding are weak or reduced against the parent protein; the word gives no strength.

Protein sequences, listed by entry. Tags and fused reporters are not part of them.
UniProt P30281: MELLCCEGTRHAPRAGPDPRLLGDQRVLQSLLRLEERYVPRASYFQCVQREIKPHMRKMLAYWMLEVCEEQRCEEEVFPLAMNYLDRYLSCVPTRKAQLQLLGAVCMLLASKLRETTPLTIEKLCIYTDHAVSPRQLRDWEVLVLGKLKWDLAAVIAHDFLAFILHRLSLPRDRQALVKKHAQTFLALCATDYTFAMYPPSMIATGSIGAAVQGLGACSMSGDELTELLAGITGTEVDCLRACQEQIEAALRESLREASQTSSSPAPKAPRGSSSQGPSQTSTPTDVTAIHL
UniProt P38936: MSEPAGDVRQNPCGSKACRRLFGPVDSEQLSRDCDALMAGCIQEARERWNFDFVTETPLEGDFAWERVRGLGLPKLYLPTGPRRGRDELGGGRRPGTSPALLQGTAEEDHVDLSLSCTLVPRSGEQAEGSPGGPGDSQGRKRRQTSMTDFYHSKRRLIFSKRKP

Experiments:
[1] = target: cyclin D3 (CCND3), endogenous (human (endogenous in HCT116)) (UniProt P30281); test: co-IP
[2] = target: CDKN1A (p21Cip/Waf1) (human (endogenous in HCT116)) (UniProt P38936); test: co-IP

Row | binding [1] | binding [2] | Substance
1 | binds |  | CDKN1A (p21Cip/Waf1) (from UniProt P38936 1-164)
2 |  | binds | endogenous CCND3 phosphorylated at Thr283 (from UniProt P30281 1-292)
3 |  | binds | cyclin D3 (CCND3), endogenous (from UniProt P30281 1-292)
